Screen size: about 390,000 compounds; about 760 (0.19%) were called active. Inconclusive results, whose numbers are uncertain, are shown with a selection of clear calls. The call rests on the fitted dose curve; in most records, active means well fitted inhibition curve with a large enough effect; inconclusive means small, poorly fitted or top-dose-only effect; inactive means flat fitted curve, though single readings scatter. A potency beside an inconclusive call is a rough fit, not a confirmed value.
experiment: qHTS for Inhibitors of Vif-A3F Interactions: qHTS; conditions: HeLa A3F-eYFP + Vif (tagged APOBEC3F with the HIV-1 protein that degrades it), YFP fluorescence increase; series mostly up to 46.1 µM; activity, negative = active: at the top concentration; further: nearly all actives have a fitted effect of over 65% in size; on activity, negative = active: % of control where 0% means no effect
Outline: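 HeLa cells stably expressing Vif plus C-terminally eYFP-tagged A3F were seeded, incubated overnight at 37 deg C, dosed with compound, incubated overnight again at 37 deg C. Yellow fluorescence (Ex 488/Em 500-530) reported blocked Vif-mediated A3F-eYFP degradation.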
Potency means the concentration at half of the fitted maximal effect.

| SMILES | Potency | activity, negative = active |
| --- | --- | --- |
| COc1ccc(-c2cc3ccccc3oc2=O)cc1NC(=O)c1ccc(Br)o1 | inconclusive: 25.1 µM [inhibitor, single point] |  |
| Cc1ccc2onc(CC(=O)Nc3cccc(C(F)(F)F)c3)c2c1 | inconclusive: 17.8 µM [inhibitor, single point] |  |
| O=C(Nc1cccc(-c2nc3ccccc3c(=O)o2)c1)c1ccccc1 | inconclusive: 2.82 µM [inhibitor, partial curve, poor fit] |  |
| COC(=O)C1=C(COc2ccc(F)cc2)NC(=O)NC1c1ccc(C)cc1C (configuration not stated) |  | inactive: -2.09% |
| CC(=O)CSc1ncnc2sc3c(c12)CCC(C)C3 (configuration not stated) | inconclusive: 8.91 µM [inhibitor, partial curve, poor fit] |  |
| CSc1nsc(/C=C/Nc2ccc(C)cc2)c1C#N | inconclusive: 20 µM [inhibitor, partial curve, poor fit] |  |
| N/C(=N\OC(=O)c1cc(-c2ccccc2)nc2ccccc12)c1ccc(Cl)cc1 |  | inactive: -10.8% |
| Cc1ccc[n+](-c2nc([O-])sc2C=O)c1 | inconclusive: 35.5 µM [inhibitor, partial curve, poor fit] |  |
| O=C1N(Cc2cccc(Cl)c2)C[C@@H]2C[C@@H](c3cccn3-c3cccnc3)N3CCC[C@@]123 | inconclusive: 11.2 µM [inhibitor, partial curve, poor fit] |  |
| CN(C)S(=O)(=O)c1ccc2oc(SCC(=O)c3c(N)n(C4CC4)c(=O)[nH]c3=O)nc2c1 | inconclusive: 17.8 µM [inhibitor, single point] |  |
| CCOc1ccc(-n2c(SCc3ccc(C#N)cc3)nnc2-c2cccnc2)cc1 | inconclusive: 3.16 µM [inhibitor, partial curve, poor fit] |  |
| CC(C)N(C(=O)[C@H]1C[C@H](CC(=O)NCC23CC4CC(CC(C4)C2)C3)C(=O)N2CCc3c([nH]c4ccc(Cl)cc34)[C@]12C)C(C)C | inconclusive: 35.5 µM [inhibitor, single point] |  |
| N/C(=N\c1nc2ccccc2o1)NC(=O)c1ccccc1F | inconclusive: 35.5 µM [inhibitor, single point] |  |
| Cc1occc1-c1nnc(SCC(=O)N2CCOCC2)n1Cc1ccco1 |  | inactive: 6.36% |
| Cc1ccc(CS(=O)(=O)CCC(=O)NCCc2ccccc2)cc1 | inconclusive: 35.5 µM [inhibitor, partial curve, poor fit] |  |
| CC12CCC(=O)C=C1CCC1C2C(O)CC2(C)C(c3csc(N)n3)CCC12 (configuration not stated) | inconclusive: 31.6 µM [inhibitor, single point] |  |
| CC(=O)c1cccc(NC(=O)CN2C(=O)COc3ccc(Cl)cc32)c1 | inconclusive: 35.5 µM [inhibitor, single point] |  |

Some of the entries above, set out differently:
SMILES	Potency	activity, negative = active
COC(=O)C1=C(COc2ccc(F)cc2)NC(=O)NC1c1ccc(C)cc1C (configuration not stated)		inactive: -2.09%
CC(=O)CSc1ncnc2sc3c(c12)CCC(C)C3 (configuration not stated)	inconclusive: 8.91 µM [inhibitor, partial curve, poor fit]	

Reference: PubChem BioAssay AID602313 (National Center for Advancing Translational Sciences (NCATS), 2012)
